Laboratory results: PubChem BioAssay AID1259405 (NCATS, 2018)
Assay: 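Knock-downs that lift recombinant protein yield in hamster ovary cells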 (primary screen). Cell system: Chinese hamster CHO-K1 ovary cells with stable secreted eGFP expression. Reagents: single siRNA against mouse genes, 0.8 pmol siRNA per well (2 µl of 400 nM stock). Duration: 3 days. Measurement: 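Per-well intracellular GFP measured by laser scanning cytometry, plus viability from ATP luminescence, each relative to plate median of non-targeting control wells, in %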. Scale: GFP, % of control: higher = more GFP per well, higher productivity; viability (ATP), % of control: higher = more viable cells (more ATP). Call rule: 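Called active when intracellular GFP, relative to negative control, is at or above 120%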.
This is a random part of about 50,000 reagents. About 4,000 of all reagents (8%) were called active. 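Mouse siRNA library applied to hamster cells; one well for each siRNA.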 No sequences are given here.

| Target gene | PubChem SID | GFP, % of control | viability (ATP), % of control | call |
| --- | --- | --- | --- | --- |
| Nrxn3 | SID363568875 | 65.2 | 90 | inactive |
| Nrxn3 | SID363576267 | 104 | 103 | inactive |
| Nrxn3 | SID363579083 | 101 | 98.1 | inactive |
| Dnase1 | SID363572346 | 59.5 | 55.1 | inactive |
| Dnase1 | SID363574106 | 75.8 | 64 | inactive |
| Or13a20 | SID363544075 | 90.8 | 53.1 | inactive |
| Or13a20 | SID363550403 | 83.9 | 63.5 | inactive |
| Or13a20 | SID363556952 | 135 | 123 | active |
| Mettl26 | SID363540792 | 66 | 94 | inactive |
| Mettl26 | SID363543243 | 80.1 | 79.1 | inactive |
| Mettl26 | SID363552736 | 188 | 81.5 | active |
| Akirin1 | SID363552157 | 54.7 | 68.5 | inactive |
| Akirin1 | SID363585293 | 70.4 | 87.4 | inactive |
| Akirin1 | SID363585644 | 78.6 | 112 | inactive |
| Tmem160 | SID363543534 | 106 | 81.1 | inactive |
| Tmem160 | SID363553027 | 48.4 | 42.3 | inactive |
| Tmem160 | SID363558875 | 81.6 | 92.7 | inactive |
| Gfra1 | SID363540103 | 58.7 | 69.1 | inactive |
| Gfra1 | SID363561404 | 86.3 | 72.1 | inactive |
| Gfra1 | SID363564440 | 60.3 | 48.6 | inactive |
| Spred3 | SID363544183 | 183 | 108 | active |
| Spred3 | SID363550511 | 86.9 | 77.4 | inactive |
| Spred3 | SID363557060 | 60.6 | 44.5 | inactive |
| Lrig2 | SID363544332 | 80.1 | 81.8 | inactive |
| Lrig2 | SID363550660 | 88.2 | 82.2 | inactive |
| Lrig2 | SID363557209 | 61.7 | 70.1 | inactive |
| Rbm17 | SID363554915 | 95.6 | 56 | inactive |
| Rbm17 | SID363568362 | 84.5 | 83.9 | inactive |
| Rbm17 | SID363586421 | 101 | 85.1 | inactive |
| Pitrm1 | SID363574344 | 95.4 | 89.5 | inactive |
| Pitrm1 | SID363575400 | 50.2 | 44.4 | inactive |
| Pitrm1 | SID363579976 | 65.8 | 49 | inactive |
| Rpl9 | SID363554050 | 84 | 97.9 | inactive |
| Rpl9 | SID363562007 | 52.8 | 36.7 | inactive |
| Rpl9 | SID363565745 | 24.3 | 18 | inactive |
| Ccdc166 | SID363543762 | 74.7 | 75.2 | inactive |
| Ccdc166 | SID363551498 | 79.7 | 82.7 | inactive |
| Ccdc166 | SID363559103 | 107 | 72.9 | inactive |
| G3bp2 | SID363569553 | 65.9 | 77.9 | inactive |
| G3bp2 | SID363577297 | 56.3 | 77.8 | inactive |
| G3bp2 | SID363578705 | 69.3 | 40.8 | inactive |
| Asah1 | SID363546583 | 51.5 | 34.9 | inactive |
| Asah1 | SID363548339 | 85.2 | 81.8 | inactive |
| Asah1 | SID363560517 | 117 | 122 | inactive |
| Serpinf2 | SID363573146 | 84 | 105 | inactive |
| Serpinf2 | SID363577722 | 112 | 113 | inactive |
| Serpinf2 | SID363581242 | 39.2 | 72 | inactive |
| Rundc1 | SID363554936 | 76 | 77.4 | inactive |
| Rundc1 | SID363568383 | 99.1 | 67.6 | inactive |
| Rundc1 | SID363586442 | 90.6 | 82.5 | inactive |
| Nr0b1 | SID363571382 | 96.3 | 90.4 | inactive |
| Nr0b1 | SID363571734 | 55.5 | 62.4 | inactive |
| Nr0b1 | SID363572086 | 72.7 | 91 | inactive |
| Pdzk1 | SID363554489 | 39.4 | 42.1 | inactive |
| Pdzk1 | SID363567936 | 91.4 | 48.3 | inactive |
| Pdzk1 | SID363585995 | 80.7 | 93.5 | inactive |
| Ffar2 | SID363571067 | 151 | 88.8 | active |
| Ffar2 | SID363571419 | 42 | 53.3 | inactive |
| Ffar2 | SID363571771 | 80.2 | 72.1 | inactive |
